Reference: paper PMC7819943, “Rice protein-binding microarrays: a tool to detect cis-acting elements near promoter regions in rice”
This is one part of the list.

The chains behind the UniProt entries cited, without tags or fusion partners.
UniProt Q0JBA9, entry or part of it: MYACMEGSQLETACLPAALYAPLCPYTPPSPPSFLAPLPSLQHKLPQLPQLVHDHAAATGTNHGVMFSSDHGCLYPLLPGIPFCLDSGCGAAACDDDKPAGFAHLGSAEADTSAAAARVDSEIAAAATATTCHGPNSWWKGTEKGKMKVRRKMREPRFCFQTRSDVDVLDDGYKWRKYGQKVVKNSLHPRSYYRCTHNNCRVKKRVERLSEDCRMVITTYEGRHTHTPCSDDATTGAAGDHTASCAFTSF

Target: OsWRKY34 (Oryza sativa, UniProt Q0JBA9 1-250)
Assay: protein-binding microarray (RPBM); PBS, 2% BSA, 51.3 ng/ul salmon testes DNA, 50 uM zinc acetate, 200 nM TF, 25 C, 1 h; high values mean tight binding
Conditions: protein: recombinant; tags: N-terminal polyhistidine and DsRed monomer fusion (pET32a); label: CyDye5-dUTP incorporated in the synthesized complementary strand; 3' TTTTT single-stranded linker to array surface; dsDNA, one strand shown
In short: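 Binding signal is defined as the fluorescence intensity of each feature in arbitrary units, read on an Axon 4000B scanner. Transcription factors with N-terminal polyhistidine and DsRed fusions came from E. coli BL21-CodonPlus and were purified on Ni–NTA. They were incubated at 200 nM for 1 h at 25 °C on a custom Agilent array that had been made double-stranded with Cy5-dUTP, with 50 µM zinc acetate present, and the array was washed.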

Sequence | binding signal
GTTGGGGAGAAGGCGGCGGCGGCGGCGGAGGAGGAGGCCACGGAGTCACCTAGTGCAG | 8330 fluorescence intensity (a.u.)
TTTCGTAGCTACTCCTAGATGTCGCATGTTATACGCTTTACGGAGTCACCTAGTGCAG | 8830 fluorescence intensity (a.u.)
ATACATTTTTGATACATTCTCAGTTTTTGTTTTGTATTAGCGGAGTCACCTAGTGCAG | 12100 fluorescence intensity (a.u.)
ATATATCTCCCATAAACTATTTTTCTTACGGTACTGTCATCGGAGTCACCTAGTGCAG | 9410 fluorescence intensity (a.u.)
CACACCATTCGCCTGCGTGCTAGTATTAGCCAGTCAATGTCGGAGTCACCTAGTGCAG | 8310 fluorescence intensity (a.u.)
TAGTGTTGGTTGTTAGGGATATGTTTTGGGCAATCTCGGCCGGAGTCACCTAGTGCAG | 10800 fluorescence intensity (a.u.)
ACTCAAATGTGTTTTTCTTTCACAAGTTGCCGTTAAAAATCGGAGTCACCTAGTGCAG | 9330 fluorescence intensity (a.u.)
GGGAGGGGCATGGGAGGAATCAAAGCGAAATTTCAAGGGTCGGAGTCACCTAGTGCAG | 9760 fluorescence intensity (a.u.)
CTCCTCAACCCGCTCTCCGGCCACCGCCCGCTCGACGCGCCGGAGTCACCTAGTGCAG | 9570 fluorescence intensity (a.u.)
GCCCGGATCGTTGACCCTTCCTTCCCTACTCGGTGTCTTTCGGAGTCACCTAGTGCAG | 13600 fluorescence intensity (a.u.)
ATCGATACCACTTCCCATCCACCATATTCCAATGCTACCTCGGAGTCACCTAGTGCAG | 9300 fluorescence intensity (a.u.)
GTTATTTTGCACCGTTTAACTATTTGCCACTTTTAGATTTCGGAGTCACCTAGTGCAG | 8440 fluorescence intensity (a.u.)
CCCCGCGCATCTCGCCGTCCACCGCCTCACTCCATCCACCCGGAGTCACCTAGTGCAG | 9000 fluorescence intensity (a.u.)
TTTTGCTTGCAACGTTTGACCACTCGTCTTATTCAAATTTCGGAGTCACCTAGTGCAG | 10200 fluorescence intensity (a.u.)
TTGTGCTCCACCGCTCTGTTCTGCCCAGTGCCAGCAGTGTCGGAGTCACCTAGTGCAG | 9420 fluorescence intensity (a.u.)
CAAGGCCATGTGCCATGTTTGACCGACTACTCCTACAAACCGGAGTCACCTAGTGCAG | 9520 fluorescence intensity (a.u.)
AGCCACTATTCGCTGTGCCGATCCACACTGCGGTTTTATTCGGAGTCACCTAGTGCAG | 8760 fluorescence intensity (a.u.)
CACCTGTCATCCACCATTCCCCATACCCGTCCGTGTCACGCGGAGTCACCTAGTGCAG | 8870 fluorescence intensity (a.u.)
CCCTGCTCTTGCATAATGCATTTAGCCTATTTGGTCTTCACGGAGTCACCTAGTGCAG | 9700 fluorescence intensity (a.u.)
GGGTTTTCACTTACCGGTTTTAAGGGTCCCTTTAAATTATCGGAGTCACCTAGTGCAG | 8490 fluorescence intensity (a.u.)
GCCTGCTATTGTACCTGCTTTAATATAGCCAACCTACTATCGGAGTCACCTAGTGCAG | 8330 fluorescence intensity (a.u.)
ACCTCAACAAAAGCTTTGTAGTAGCTCTTAATTGTTGGGTCGGAGTCACCTAGTGCAG | 8220 fluorescence intensity (a.u.)
GCCGTCTCGCCATTTTGACCAGACCACCTCGCTGCCTCTGCGGAGTCACCTAGTGCAG | 10600 fluorescence intensity (a.u.)

In a second layout: results already given
CTCCTCAACCCGCTCTCCGGCCACCGCCCGCTCGACGCGCCGGAGTCACCTAGTGCAG
  binding signal: 9570 fluorescence intensity (a.u.)
GCCCGGATCGTTGACCCTTCCTTCCCTACTCGGTGTCTTTCGGAGTCACCTAGTGCAG
  binding signal: 13600 fluorescence intensity (a.u.)
